# Results as given in the supplement of paper PMC4604168 (melanoma cell lines).
# This is one part of the list. Repeats are few or missing, and single values can be far off.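 Cells were imaged in 1,536-well plates, and nuclei stained with an antibody against cleaved PARP were counted against all DNA-stained nuclei to give the apoptosis fraction. Screening doses were chosen to leave most cells alive, and resting and induced cleaved-PARP levels differ strongly between cell lines.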
# System: MeWo
# Assay: cleaved PARP positive nuclei fraction relative to DMSO control; melanoma cells; higher = more apoptosis
# Conditions: library dose: low library concentration; 72 h
row,Structure (SMILES),cleaved PARP positive nuclei fraction [%]
1,"CCc1ccc(CCOc2ccc(CC3SC(=O)NC3=O)cc2)nc1 (stereo unspecified) [pioglitazone] + CCCCCCCCCCCC1=C(O)C(=O)C=C(O)C1=O [Embelin] (first compound 2 µM, partner dose 1.2 µM)",37.1
2,"CN(C)S(=O)(=O)c1ccc2c(c1)/C(=C/c1cc3c([nH]1)CCCC3)C(=O)N2 + c1cc(-c2cnn3cc(-c4ccc(OCCN5CCCCC5)cc4)cnc23)ccn1 [Dorsomorphin] (first compound 0.4 µM, partner dose 0.4 µM)",68.7
3,"O=C(Nc1ccccc1)c1cc([N+](=O)[O-])ccc1Cl + O=c1cc(-c2cccc3c2Sc2ccccc2S3)oc(N2CCOCC2)c1 [KU55933] (first compound 2 µM, partner dose 1 µM)",116
4,"COc1cc2ncnc(Nc3ccc(Oc4ccccc4)cc3)c2cc1OC + O=C(O)C(=O)Nc1sc2c(c1C(=O)O)CCNC2 [TCS401] (first compound 2 µM, partner dose 1.66667 µM)",47
5,"COc1ccc(-c2ccc3c(N4CCOCC4)nc(N4C[C@@H](C)O[C@@H](C)C4)nc3n2)cc1CO + Oc1nc(-c2ccc(C(F)(F)F)cc2)nc2c1CSCC2 [XAV939] (first compound 0.02 µM, partner dose 2 µM)",66.7
6,"CN(NC(=O)CC(=O)NN(C)C(=S)c1ccccc1)C(=S)c1ccccc1 + CCc1ccc(CCOc2ccc(CC3SC(=O)NC3=O)cc2)nc1 [pioglitazone] (first compound 0.006 µM, partner dose 2 µM)",108
7,"CCc1ccc(CCOc2ccc(CC3SC(=O)NC3=O)cc2)nc1 (stereo unspecified) [pioglitazone] + Cc1cc([N+](=O)[O-])ccc1NS(=O)(=O)c1cc(Cl)ccc1Cl [FH535] (first compound 2 µM, partner dose 1 µM)",148
8,"CCN(CC)CCCCNc1ncc2cc(-c3cc(OC)cc(OC)c3)c(NC(=O)NC(C)(C)C)nc2n1 + O=c1cc(-c2cccc3c2Sc2ccccc2S3)oc(N2CCOCC2)c1 [KU55933] (first compound 0.1 µM, partner dose 1 µM)",198
9,"COc1ccc(COc2ccc(Cc3cnc(N)nc3N)cc2OC)cc1 + O=C1NC(=O)/C(=C/c2ccc(-c3ccc(F)cc3O)o2)S1 [AS252424] (first compound 1 µM, partner dose 1 µM)",110
10,"Oc1cc(-c2nc(-c3ccccc3)[nH]c2-c2ccncc2)ccc1Cl + Cn1cc(/C=C2\C(=O)Nc3cccnc32)c2ccccc21 [GW441756] (first compound 0.2 µM, partner dose 0.4 µM)",92.8
11,"NCC(=O)Nc1ccc(-n2nc(C(F)(F)F)cc2-c2ccc3c(ccc4ccccc43)c2)cc1 + Oc1cc(-c2nc(-c3ccccc3)[nH]c2-c2ccncc2)ccc1Cl [L779450] (first compound 1 µM, partner dose 0.2 µM)",188
12,"O=S(=O)(c1ccccc1)N(CC(F)(F)F)c1ccc(C(O)(C(F)(F)F)C(F)(F)F)cc1 + CC(C)CCN1c2nc(Nc3cc(F)c(O)c(F)c3)ncc2N(C)C(=O)C1C [BID1870] (first compound 1.4 µM, partner dose 0.2 µM)",78.9
13,"Cn1cc(/C=C2\C(=O)Nc3cccnc32)c2ccccc21 + CC(C)CCN1c2nc(Nc3cc(F)c(O)c(F)c3)ncc2N(C)C(=O)C1C [BID1870] (first compound 0.4 µM, partner dose 0.2 µM)",74.5
14,"O=C1NC(=O)/C(=C/c2ccc(-c3ccc(F)cc3O)o2)S1 + COc1cc(N2CCC(N3CCN(C)CC3)CC2)ccc1Nc1ncc(Cl)c(Nc2ccccc2S(=O)(=O)C(C)C)n1 [NVP-TAE684] (first compound 1 µM, partner dose 0.08 µM)",190
15,"N#Cc1c(O)c2c(-c3ccc(-c4ccccc4O)cc3)csc2[nH]c1=O + CCN(CC)CCCCNc1ncc2cc(-c3cc(OC)cc(OC)c3)c(NC(=O)NC(C)(C)C)nc2n1 [PD173074] (first compound 2 µM, partner dose 0.1 µM)",28.1
16,"CN(C)S(=O)(=O)c1ccc2c(c1)/C(=C/c1cc3c([nH]1)CCCC3)C(=O)N2 + COc1ccc2c(c1)CCC1C2CCC2(C)C(NCCCCCCN3C(=O)C=CC3=O)CCC12 [U73122] (first compound 0.4 µM, partner dose 0.4 µM)",59
